The target in this assay is T1, LRIT3 (UniProt W8DXL4).
T1 sequence: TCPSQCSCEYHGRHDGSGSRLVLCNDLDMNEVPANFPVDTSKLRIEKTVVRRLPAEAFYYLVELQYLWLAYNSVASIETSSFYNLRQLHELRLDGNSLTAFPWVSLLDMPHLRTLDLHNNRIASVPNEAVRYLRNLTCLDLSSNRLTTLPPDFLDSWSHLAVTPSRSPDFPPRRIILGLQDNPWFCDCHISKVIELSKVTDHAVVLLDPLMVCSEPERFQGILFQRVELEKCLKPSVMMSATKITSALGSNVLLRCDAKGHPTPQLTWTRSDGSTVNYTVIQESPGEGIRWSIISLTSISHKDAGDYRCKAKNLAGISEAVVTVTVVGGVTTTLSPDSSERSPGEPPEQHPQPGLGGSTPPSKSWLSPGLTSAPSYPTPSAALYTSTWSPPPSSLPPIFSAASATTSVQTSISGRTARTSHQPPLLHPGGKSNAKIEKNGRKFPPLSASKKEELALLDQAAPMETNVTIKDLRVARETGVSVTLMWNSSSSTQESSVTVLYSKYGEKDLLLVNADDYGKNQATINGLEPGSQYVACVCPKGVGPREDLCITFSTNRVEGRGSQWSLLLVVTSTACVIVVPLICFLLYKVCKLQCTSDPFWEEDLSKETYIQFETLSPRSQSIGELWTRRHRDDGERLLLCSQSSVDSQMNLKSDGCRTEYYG
The assay can be described thus: co-IP; HEK293T cells transfected with pLrit3, pNyx-EYFP or both; NP-40 lysates precipitated with anti-LRIT3 antibody and Dynabeads protein G at 4°C; washed with TBS with 0.3% Tween 20; blots probed with anti-LRIT3 and anti-GFP.

Results are given in words; binding and its absence hold for the method and conditions named. Binding seen in cells or lysates may run through a third protein. Some entries that bind do so weakly or less than the wild type. Tags and fused reporters may be left off the sequences shown.

B1: EYFP tagged nyctalopin fusion protein (protein, UniProt P83503 19-476)
chain: TEACLRACPAACTCSHVERGCSVRCDRAGLQRVPQEFPCEAASIDLDRNGLRILGERAFGTLPSLRRLSLRHNNLSFITPGAFKGLPRLAELRLAHNGELRYLHVRTFAALGRLRRLDLAACRLFSVPERLLAELPALRELTAFDNLFRRVPGALRGLANLTHAHFERSRIEAVASGSLLGMRRLRSLSLQANRVRAVHAGAFGDCGALEDLLLNDNLLATLPAAAFRGLRRLRTLNLGGNALGSVARAWFSDLAELELLYLDRNSITFVEEGAFQNLSGLLALHLNGNRLTVLSWAAFQPGFFLGRLFLFRNPWRCDCQLEWLRDWMEGSGRVADVACASPGSVAGQDLSQVVFERSSDGLCVDPDELNFTTSSPGPSPEPVATTVSRFSSLLSKLLAPRAPVEEVANTTWELVNVSLNDSFRSHAVMVFCYKATFLFTSCVLLSLAQYVVVGLQRE
Turning to B1, the binding entry is “binds”.

The values above are taken from article PMC7031853.
